Reference: PubChem BioAssay AID2289 (National Center for Advancing Translational Sciences (NCATS), 2010)
Only a part is listed here, and it is no random draw. Results filed as inconclusive are left out. Active and inactive are the calls of the source. Calls come from the whole dose curve; as a rule, active = well fitted inhibition curve with a large enough effect; inconclusive = small, poorly fitted or top-dose-only effect, or effect the other way; inactive = flat fitted curve, though single readings scatter.
Potency is the fitted concentration of half-maximal effect.

Test: qHTS Assay for Modulators of miRNAs and/or Inhibitors of miR-21; note: nearly all actives have a fitted effect of over 55% in size
Conditions: HeLa miR-21-FLuc reporter, luciferase luminescence, 48 h; actives lower the signal
Excerpt: MLSCN Grant: 1 R21 NS059478-01 Assay Provider: Qihong Huang, The Wistar Institute NCGC Assay Overview: MicroRNAs (miRNAs) are endogenously encoded small (~20-25 nucleotides), nonprotein-coding RNAs that are involved in post-transcriptional repression of target messenger RNAs (mRNAs) (Le and Hannon, 2004). Estimated to be involved in the regulation of 30% of all protein-coding mRNAs (Filipowicz et al., 2008), miRNAs play a significant role in many biological processes including cellular differentiation and tissue development (Ghildiyal and Zamore, 2009).
NCGC Assay Protocol Summary: Reagents: HeLa cells stably expressing firefly luciferase (FLuc) under the control of a CMV promoter (upstream) and a miR-21 binding sequence directly downstream of the gene. These cells endogenously express miR-21. Control compounds used were compound C3 (provided by collaborator), N6-phenyladenosine (MP Biomedicals, 0215379625), and DMSO. Assay Summary: 6uL of HeLa miR-21-FLuc cells in assay buffer (DMEM, Invitrogen #21063-029; 10% FBS, HyClone #SH30071.03) were dispensed at 2000cells/well (3.3 x 10^5 cells/mL) into Greiner solid-white TC-treated 1536-well plates using a Multidrop Combi (Thermo Fisher Scientific). […] After a 15 minute incubation to allow for cell lysis, luciferase activity was measured using a ViewLux CCD imager (PerkinElmer), with an average exposure time of 2-12 seconds. […]
For `Cc1cc(=O)oc2cc(OCc3ccccc3)ccc12`, the Potency was active: 1850 nM.
